Measurements taken from PMC5996148.
“And” between values parts separate entries of the source, which are not always exact repeats. Equal values may be shown once. The list shows a part of the results. For some assays here: The source does not settle which construct or isoform was used.

Chains of the proteins cited; added tags and fusions are not shown. Lines headed by an entry give the natural chain unless they say otherwise; changes in a name come on top.
UniProt Q9Y3Z3: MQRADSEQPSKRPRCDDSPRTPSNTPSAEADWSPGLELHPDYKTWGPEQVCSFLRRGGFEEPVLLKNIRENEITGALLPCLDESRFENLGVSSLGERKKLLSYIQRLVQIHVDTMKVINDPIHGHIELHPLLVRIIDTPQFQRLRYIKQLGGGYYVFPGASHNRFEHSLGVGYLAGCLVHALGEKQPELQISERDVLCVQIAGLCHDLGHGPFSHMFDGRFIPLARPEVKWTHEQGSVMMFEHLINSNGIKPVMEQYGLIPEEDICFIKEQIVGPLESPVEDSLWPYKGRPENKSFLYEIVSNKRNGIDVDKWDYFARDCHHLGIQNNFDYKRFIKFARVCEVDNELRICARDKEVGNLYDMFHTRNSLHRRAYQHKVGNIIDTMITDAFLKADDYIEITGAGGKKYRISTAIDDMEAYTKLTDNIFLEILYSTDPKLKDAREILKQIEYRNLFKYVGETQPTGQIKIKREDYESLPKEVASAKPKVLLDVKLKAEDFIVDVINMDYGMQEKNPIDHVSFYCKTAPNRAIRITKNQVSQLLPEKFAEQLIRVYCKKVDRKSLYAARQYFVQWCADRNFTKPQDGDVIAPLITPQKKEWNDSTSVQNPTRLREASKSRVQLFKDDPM

Tests used:
Assay in all cases: protein microarray (ProtoArray v5.0), streptavidin-Alexa Fluor 647
Details in all cases: 3'-biotin; 20 mM Tris (pH 7.5), 5 mM MgCl2, 100 mM KCl, 0.1% Tween-20, A/T-rich and random oligonucleotide blockers; temperature not stated; high values mean tight binding
[1] = tested on: Ribonuclease inhibitor (human)
Ropporin-1B (human) = tested on: Ropporin-1B (human)
[2] = tested on: S-adenosylmethionine decarboxylase proenzyme (human)
S100A10 (human) = tested on: S100A10 (human)
S100A11 (human) = tested on: S100A11 (human)
S100A12 (human) = tested on: S100A12 (human)
S100A14 (human) = tested on: S100A14 (human)
S100A2 (human) = tested on: S100A2 (human)
S100A7 (human) = tested on: S100A7 (human)
S100A8 (human) = tested on: S100A8 (human)
SAA1 (human) = tested on: SAA1 (human)
SAA4 (human) = tested on: SAA4 (human)
SAE1 (human) = tested on: SAE1 (human)
SAMD13 (human) = tested on: SAMD13 (human)
SAMD3 (human) = tested on: SAMD3 (human)
SAMD4A (human) = tested on: SAMD4A (human)
SAMHD1 = SAMHD1 (UniProt Q9Y3Z3)
SAPS2 (human) = tested on: SAPS2 (human)
SAR1A (human) = tested on: SAR1A (human)
SAR1B (human) = tested on: SAR1B (human)

GGGAGGCTGAGGCAGG [G4-1 biotinylated (PQS2)]
binding signal [1]: -0.353 z-score | binding signal (Ropporin-1B (human)): -0.369 z-score | binding signal [2]: -0.264 z-score | binding signal (S100A10 (human)): -0.301 z-score | binding signal (S100A11 (human)): -0.29 z-score | binding signal (S100A12 (human)): -0.305 z-score | binding signal (S100A14 (human)): -0.373 z-score | binding signal (S100A2 (human)): -0.344 z-score | binding signal (S100A7 (human)): -0.286 z-score | binding signal (S100A8 (human)): -0.365 z-score | binding signal (SAA1 (human)): -0.341 z-score | binding signal (SAA4 (human)): -0.334 z-score | binding signal (SAE1 (human)): -0.361 z-score | binding signal (SAMD13 (human)): -0.32 z-score | binding signal (SAMD3 (human)): -0.315 z-score | binding signal (SAMD4A (human)): -0.354 z-score | binding signal (SAMHD1): -0.279 z-score | binding signal (SAPS2 (human)): -0.352 z-score and -0.331 z-score | binding signal (SAR1A (human)): -0.356 z-score | binding signal (SAR1B (human)): -0.36 z-score
